Source: PubChem BioAssay AID2099 (Broad Institute, 2009)
In all, about 330,000 compounds went through this assay and about 230 (0.07%) were called active. The shares of active, inactive and inconclusive entries below differ from those in the screen.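 Rule for the calls: active = more than half of a compound's replicate wells show inhibition beyond 50%, single wells judged on their own value; inconclusive = some, but no more than half, of replicates pass 50% inhibition; inactive = no replicate passes 50% inhibition.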 Non-standard residues stand in square brackets, D forms with d. Residues, ends and D or L forms follow the SMILES beside them. pGlu = O=C1CC[CH](C(=O)O)N1

Amino acid sequences for entries named in this document (tags omitted). Residues count along the entry.
UniProt Q9H3R0, 1-420 limits assumed: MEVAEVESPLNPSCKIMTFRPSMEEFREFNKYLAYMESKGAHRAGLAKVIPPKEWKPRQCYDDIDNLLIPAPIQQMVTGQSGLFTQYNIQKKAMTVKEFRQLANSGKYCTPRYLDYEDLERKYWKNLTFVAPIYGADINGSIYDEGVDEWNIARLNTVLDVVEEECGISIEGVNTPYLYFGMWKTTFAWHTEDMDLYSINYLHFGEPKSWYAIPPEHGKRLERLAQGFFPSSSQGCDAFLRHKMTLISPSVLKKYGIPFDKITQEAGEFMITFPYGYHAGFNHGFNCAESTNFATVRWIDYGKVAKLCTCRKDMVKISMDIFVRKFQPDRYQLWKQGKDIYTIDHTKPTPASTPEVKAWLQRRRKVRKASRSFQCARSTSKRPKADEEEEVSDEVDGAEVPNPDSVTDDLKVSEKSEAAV

Each compound was assayed against Lysine-specific demethylase 4C (Homo sapiens) (UniProt Q9H3R0) (assay: inhibitors of GASC-1 histone demethylase, primary screen, biochemical, fluorescence, DELFIA europium (AID 2099;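 note: signal counts dimethyl H3K9 product captured on neutravidin plate; 0% = median of DMSO wells and 100% = 0.3 times that DMSO median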)). Conditions: GST-JMJD2C(1-420) H3K9me3 demethylation, at 2.35 µM, active compounds read high.

Row | Compound | inhibition
1 | N#C/C(=N/Nc1ccccc1F)C(=N)N1CCOCC1 | inactive: 12.8%
2 | Nc1nc(-c2ccc(Br)s2)c(Br)s1 | inconclusive: -98.8%
3 | CCN1CCN(Cc2c(OC)ccc3ccccc23)CC1 | inconclusive: -66.3%
4 | CCCNC(=O)Cn1cccc1C(=O)c1ccccc1 | inactive: 4.05%
5 | CCOc1ccc(N2CC(C(=O)NCC(=O)Nc3ccc(F)c(F)c3F)CC2=O)cc1 (centres undefined) | inactive: 11.1%
6 | N/C(CC(=O)Nc1cc(C(F)(F)F)ccc1Cl)=N\O | inconclusive: -52.8%
7 | COc1cc(OC)c2ccc(=O)oc2c1C(CC(=O)N1CCCC(C)C1)c1ccc2c(c1)OCO2 (centres undefined) | inactive: 4.01%
8 | Cn1c(=O)[nH]c(=O)c2c1nc(N1CCCCC1)n2CC(O)COc1ccccc1 (centres undefined) | inactive: -9.76%
9 | O=C(NCCCN1CCOCC1)c1ccc(S(=O)(=O)Nc2cccc(C(F)(F)F)c2)cc1 | inconclusive: -94.6%
10 | Cc1cc(C)c(N(C(=O)CN2C(=O)c3ccccc3S2(=O)=O)C(C(=O)NCC2CCCO2)c2ccc(F)cc2)c(C)c1 (centres undefined) | inactive: 16.9%
11 | COC(=O)c1ccc(NC(=O)CN(c2ccc(C)cc2)S(=O)(=O)c2c(C)nn(C)c2C)cc1 | inactive: -0.496%
12 | Cc1ccc(C(=O)Nc2cccc(N(C)S(C)(=O)=O)c2)cc1S(=O)(=O)Nc1ccccc1 | inactive: -0.762%
13 | COC(=O)c1nn(-c2ccc3c(c2)OCO3)cc1O | inactive: -9.73%
14 | CCN(C(=O)Cn1cc(C(F)(F)F)ccc1=O)c1c(N)n(Cc2ccccc2)c(=O)[nH]c1=O | inactive: -1.75%
15 | Cc1nc2ccc(NC(=O)COc3ccccc3C)cc2s1 | active: 64.8%
16 | Cc1c(Cl)cccc1-n1ccnc1SCC(=O)O | inconclusive: -64.7%
17 | C=CCn1c(C)nnc1SCC(=O)NC1CCCCC1 | inconclusive: -54.8%
18 | CCC1(c2ccccc2)NC(=O)N(CC(=O)Nc2cc(S(=O)(=O)N3CCOCC3)ccc2OC(C)C)C1=O (centres undefined) | inconclusive: -27.1%
19 | Cc1cc(C)c(C#N)c(SCC(=O)C2CC2)n1 | inactive: 11.6%
20 | Brc1ccccc1C1=Nn2c(nnc2-c2ccco2)SC1 | inconclusive: -61.6%
21 | Cn1c(SCC(=O)N2CCCC2=O)nnc1-c1ccccc1F | active: 55.1%
22 | Cc1ccc2c(c1)c1c3n2CCCNC3CCC1 (centres undefined) | active: 86.3%
23 | CN(CC(=O)Nc1ccc(F)c(Cl)c1)S(=O)(=O)c1ccc2c(c1)n(C)c(=O)c(=O)n2C | inconclusive: -156%

Row | Compound | inhibition
24 | Cc1c(N=Cc2cccs2)c(=O)n(-c2ccccc2)n1C | inconclusive: -174%
25 | CC(=O)NN1C(=O)c2ccccc2NC1c1ccoc1 (centres undefined) | inactive: 4.57%
26 | O=C(NC1CCCCC1)c1c(O)nc2sccn2c1=O | inconclusive: -29.2%
27 | Cc1cc(N)ccc1N=Nc1c(C)n(C)n(-c2ccccc2)c1=O | inactive: -6.37%
28 | COc1cc(/C=N/NC(=O)CN(Cc2ccccc2)S(=O)(=O)c2ccc3c(c2)OCCO3)ccc1O | inactive: -7.68%
29 | COc1cc2c(cc1OC)CN(C(=O)CSc1n[nH]c(N)n1)CC2 | active: 54.4%
30 | O=C(CSc1nnc2ccc(-c3cccnc3)nn12)Nc1ccc(F)cc1 | inconclusive: -50.5%
31 | Cc1cc2nc(/N=C(\N)NC(=O)N3c4ccccc4Sc4ccccc43)nc(C)c2cc1C | inactive: -3.36%
32 | Cn1ncc(C#N)c1NC(=O)C1CC(c2ccc(Cl)c(Cl)c2)=NO1 (centres undefined) | inconclusive: -108%
33 | CSc1ccc(C=NNc2ccc(S(=O)(=O)Nc3ccccc3C(=O)O)cc2[N+](=O)[O-])cc1 | active: 103%
34 | Cn1c(=O)c2c(nc(-n3ccnc3)n2Cc2ccccc2)n(C)c1=O | inconclusive: -75%
35 | CN(c1ccc(C(=O)NC2CC3CCC2C3)cc1)S(C)(=O)=O (centres undefined) | inactive: 1.63%
36 | CC1(C)CC(O)C(C(O)c2cccc([N+](=O)[O-])c2)C(C)(C)N1 (centres undefined) | inconclusive: -51.8%
37 | O=C1/C(=C\c2ccccc2)SC(=S)N1CCC(=O)N1CCCCC1CCO (centres undefined) | inconclusive: -82%
38 | CC(=O)Nc1c2c3c(cccc3n(C)c1=O)C(=O)c1ccccc1-2 | inactive: -10.8%
39 | O=[N+]([O-])c1cccc(S(=O)(=O)N2CCCCC2c2cccnc2)c1 (centres undefined) | inconclusive: -345%
40 | COc1ccc(Nc2ncnc3sccc23)cc1 | inconclusive: -54.9%
41 | Nc1ccc(S(=O)(=O)c2ccccc2)nc1 | inconclusive: -53.6%
42 | COc1ccc(-c2cc(=O)c3cc(O)ccc3o2)cc1 | inconclusive: -119%
43 | Cc1cccc(Nc2nc(-c3c(C)nc4ccccn34)cs2)c1 | inconclusive: -55.8%
44 | COc1cc(/C=N/N=C/c2c[nH]c(=O)c(C#N)c2Nc2ccccc2)ccc1O | inconclusive: -55.3%
45 | CN1c2ccccc2C(O)=C(C(=S)Nc2ccccc2)S1(=O)=O | inconclusive: -95.1%
46 | Cc1cc(OCC(=O)NCc2ccccn2)c2c(C)c(C)c(=O)oc2c1 | inconclusive: -116%

Row | Compound | inhibition
47 | CCCCN(C(=O)c1ccc2c(c1)OCO2)c1c(N)n(CCCC)c(=O)[nH]c1=O | inconclusive: -25%
48 | CCOc1ccc(NC(=S)NNC(=S)Nc2cccc(C(F)(F)F)c2)cc1 | inactive: -4%
49 | CCOCC(=O)N1CCN(Cc2ccc3c(c2)OCO3)CC1 | inactive: -12%
50 | CCCN(CCC)C(=O)CSc1nc2n[nH]c(C)c2c(=N)n1-c1ccc(OC)cc1 | inactive: 3.02%
51 | Cc1ccccc1CN1CCC(n2nccc2NC(=O)CCCc2ccccc2)CC1 | inactive: 28.6%
52 | CC(C)C[C@H](NC(=O)[C@@H]1Cc2c([nH]c3ccccc23)C2c3ccccc3C(=O)N21)C(=O)NCC1CCCO1 (some centres undefined) | inconclusive: -95.2%
53 | Nc1c(N2CCN(c3ccccc3)CC2)c2ccccc2oc1=O | inactive: -18.5%
54 | Cc1[nH]c2ccccc2c1/C=N/Nc1nc2ccccc2[nH]1 | inconclusive: -71.2%
55 | COc1ccc(CCN2C(=O)C3C4CC(C5C(C(N)=O)=NOC45)C3C2=O)cc1OC (centres undefined) | inactive: 1.94%
56 | C1CCN=C(Nc2nc3c(s2)CCCC3)CC1 | inconclusive: -117%
57 | COc1ccc(CNC(=O)COc2cc3c(c4oc(=O)cc(C)c24)CCC(C)(C)O3)cc1 | inconclusive: -356%
58 | CCOC(=O)/C(C#N)=C/Nc1cc(OC)ccc1OC | inactive: -7.07%
59 | CCN1C(=O)[C@H]2[C@@H](c3ccc(-c4ccc(F)cc4)cc3)N[C@@](CC(C)C)(C(=O)OC)[C@H]2C1=O | inconclusive: -224%
60 | CCCC/C(O)=C1\C(=O)CCCC1=NCCc1c(C)[nH]c2ccc(OC)cc12 | inactive: 2.2%
61 | CC1=NN(S(=O)(=O)c2ccc(F)cc2)C(=O)c2ccccc2O1 | inconclusive: -151%
62 | CCOc1ncccc1C(=O)OCC(=O)N1CC(=O)Nc2ccccc21 | inconclusive: -76.3%
63 | C=CCSC1=N/C(=C\c2cccnc2)C(=O)N1c1ccc(OC)cc1 | inactive: -5.12%
64 | S=C(NCC1CCCO1)N1CCN(c2ccccc2)CC1 (centres undefined) | inactive: -10.9%
65 | O=C(O)CCCC(=O)Nc1cc([N+](=O)[O-])ccc1O | inconclusive: -58.5%
66 | O=C(CSc1ccccc1)N1CCC(N2CCC(C(=O)N3CCCC3)CC2)CC1 | inconclusive: -79.3%
67 | O=C(O)C1CCCCC1C(=O)Nc1ccc2c(c1)OCCO2 (centres undefined) | inconclusive: -160%
68 | Cc1cc(OC(C)C(=O)NCCN2CCOCC2)c2c(C)c(C)c(=O)oc2c1 (centres undefined) | inconclusive: -164%
69 | COc1ccc(NS(=O)(=O)c2cccc(C(=O)NNC(=O)c3ccc(Br)o3)c2)cc1 | inconclusive: -156%

Row | Compound | inhibition
70 | CC(=O)c1ccc(NC(=O)c2cccs2)cc1 | inactive: -14.5%
71 | CN1CCN(c2nc(-c3ccccc3)cc(C(F)(F)F)n2)CC1 | inactive: 9.42%
72 | CCc1cc2c(SCC(=O)O)ncnc2s1 | inactive: -9.3%
73 | CCSc1nc2c(cnn2-c2ccc(C)cc2)c(=O)[nH]1 | inactive: 7.02%
74 | CSc1nc2ccccc2c(=O)n1N | inconclusive: -60.4%
75 | Cc1ccc(NC(=O)Cn2nnc(-c3ccccc3-n3cnnn3)n2)c(C)c1 | inconclusive: -67.8%
76 | O=C(NCCNC(=O)c1ccccc1Br)c1cccnc1 | inactive: 3.24%
77 | Cc1ccc2cccc(NC3OC(=O)c4ccccc43)c2n1 (centres undefined) | inactive: 5.24%
78 | O=C(COC(=O)Cc1c(Cl)cccc1Cl)NCCC1=CCCCC1 | inconclusive: -66.8%
79 | O=C1NC(=S)N/C1=C\c1ccc(Oc2ccc(C(F)(F)F)cc2[N+](=O)[O-])c(Cl)c1 | inconclusive: -86%
80 | CCn1c(SCC(=O)N2CCCc3ccccc32)nc2ccccc2c1=O | inconclusive: -54.1%
81 | CC(C)CC(NC(=O)C1CCC(=O)N1)C(=O)NC(CC(C)C)C(=O)N1CCCC1C(N)=O (centres undefined) ([pGlu]LLP-NH2; configuration not given here) | inconclusive: -77.4%
82 | CC(=O)Nc1cccc(Cn2cccn2)c1 | inconclusive: -32.7%
83 | Clc1ccc(-n2ncc3c(NCC4CCCO4)ncnc32)cc1 (centres undefined) | inactive: 2.4%
84 | CCCCn1c(N)c(N(CCOC)C(=O)C2CCN(C(=O)c3ccc(F)cc3)CC2)c(=O)[nH]c1=O | inconclusive: -119%
85 | CCCCNC(=S)N(CCCN(C)C)Cc1cc2cc3c(cc2[nH]c1=O)OCO3 | inconclusive: -109%
86 | Cc1cccc(NC(=O)COc2ccccc2C(=O)NC(C)c2ccccc2)c1 (centres undefined) | inactive: -14.2%
87 | O=C(CCCOc1ccccc1)n1nnc2ccccc21 | inconclusive: -268%
88 | COc1ccccc1/C=C\C=N\NC(=O)CCn1nnc2ccccc21 | inconclusive: -50.3%
89 | COc1ccc(NC(=O)COC(=O)C2CC(=O)N(Cc3ccc(C)cc3)C2)cc1 (centres undefined) | inconclusive: -55.3%

Copied from the list.
Entry of O=C(NCCNC(=O)c1ccccc1Br)c1cccnc1 under inhibition: inactive: 3.24%
Entry of CC(=O)c1ccc(NC(=O)c2cccs2)cc1 under inhibition: inactive: -14.5%
Entry of CCn1c(SCC(=O)N2CCCc3ccccc32)nc2ccccc2c1=O under inhibition: inconclusive: -54.1%
Entry of CC(=O)Nc1cccc(Cn2cccn2)c1 under inhibition: inconclusive: -32.7%
Entry of CCCCn1c(N)c(N(CCOC)C(=O)C2CCN(C(=O)c3ccc(F)cc3)CC2)c(=O)[nH]c1=O under inhibition: inconclusive: -119%
